Source: article PMC12221297
Construct, isoform or probe ends are uncertain for at least one entry. Results from cells or extracts need not show a direct contact.

Test system: PCBP2 endogenous + SYNCRIP (hnRNPQ) endogenous
Experiment: EMSA ultrashift
Settings: both antibodies; EMSA: REMSA binding buffer (LightShift kit), 4 ug extract, 0.5 pmol biotin-RNA, 30 min room temperature, native 6% PAGE 0.5x TBE; protein in an extract; label: 5' biotin

CUCCUACCUGUUAGCAUUAAC [miR-155-3p WT (Table 1: miR-155b-3p WT)]
binding result: binds
